# Structures can show the parent of a compound that is named as a salt. Some of the results follow. Rule as the data show it: active = 2.5 or more and inactive = the rest. Single values are uncertain here, since repeats match poorly.
# Test system: Lgr5 (MarsCy1-Lgr5-EGFP, U2OS)
# Assay: cell-surface Lgr5 expression (SCi1 fluorescence, background-subtracted) relative to WT control (fold of WT control); higher = more Lgr5 at the plasma membrane
# Settings: U2OS MarsCy1-Lgr5-EGFP stable; treatment time: overnight; library: Prestwick; 20 µM
row,SMILES,cell-surface Lgr5 expression
1,CCOC(=O)C1=C[C@]2(CC)CCCN3CCc4c(n1c1ccccc41)[C@@H]32 [Vinpocetine],inactive: -0.0923
2,C[C@]12CC[C@@H]3c4ccc(O)cc4CC[C@H]3[C@@H]1CCC2=O [Estrone],inactive: 2
3,CN(C)[C@@H]1C(O)=C(C(N)=O)C(=O)[C@@]2(O)C(O)=C3C(=O)c4c(O)ccc(Cl)c4[C@@](C)(O)[C@H]3C[C@@H]12 [Chlortetracycline hydrochloride],inactive: 0.799
4,CC(=O)N(CC(C)C(=O)O)c1c(I)cc(I)c(N)c1I (configuration not stated) [Iocetamic acid],inactive: 2.03
5,c1ccc2[nH]c(-c3cscn3)nc2c1 [Tiabendazole],inactive: 1.47
6,CN1[C@@H](CC(=O)c2ccccc2)CCC[C@H]1C[C@H](O)c1ccccc1 [Lobeline alpha (-) hydrochoride],active: 2.56
7,CC1CS(=O)(=O)CCN1/N=C/c1ccc([N+](=O)[O-])o1 (configuration not stated) [Nifurtimox],inactive: 1.07
8,C=C1C[C@]23C[C@@]1(O)CC[C@H]2[C@@]12C=C[C@H](O)[C@@](C)(C(=O)O1)[C@H]2[C@@H]3C(=O)O [Gibberellic acid],inactive: 0.807
9,CC1=C(CC(=O)O)c2cc(F)ccc2/C1=C\c1ccc([S+](C)[O-])cc1 (configuration not stated) [Sulindac],inactive: 1.16
10,CN(C)CCCO[C@@H]1[C@H]2OC(C)(C)O[C@H]2O[C@@H]1[C@H](O)CO [Amiprilose hydrochloride],inactive: 1.94
11,C[C@]12CC[C@@H]3c4ccc(O)cc4CC[C@H]3[C@@H]1C[C@@H](O)[C@@H]2O [Estriol],inactive: 1.06
12,CCc1cccc2c3c([nH]c12)C(CC)(CC(=O)O)OCC3 (configuration not stated) [Etodolac],active: 3.21
13,Cc1noc(NS(=O)(=O)c2ccc(N)cc2)c1C [Sulfisoxazole],inactive: 1.19
14,CC[N+](CC)(CC)CCC(O)(c1ccccc1)C1CCCCC1 (configuration not stated) [Tridihexethyl chloride],inactive: 1.33
15,CCOC(=O)[C@H](CCc1ccccc1)N[C@@H](C)C(=O)N1CCC[C@H]1C(=O)O [Enalapril maleate],inactive: 1
16,CO/N=C(\C(=O)N[C@@H]1C(=O)N2C(C(=O)O)=C(C[N+]3(C)CCCC3)CS[C@H]12)c1csc(N)n1 [Cefepime hydrochloride],inactive: 1.04
17,COc1ccc2[nH]c([S+]([O-])Cc3ncc(C)c(OC)c3C)nc2c1 (configuration not stated) [Omeprazole],active: 3.17
18,CC(=O)Nc1ccc(O)cc1 [Acetaminophen],inactive: 1.91
19,OCCOCCN1CCN(C(c2ccccc2)c2ccc(Cl)cc2)CC1 (configuration not stated) [Hydroxyzine dihydrochloride],inactive: 1.25
20,C=CC1=C(C(=O)O)N2C(=O)[C@@H](NC(=O)/C(=N\OCC(=O)O)c3csc(N)n3)[C@H]2SC1 [Cefixime],inactive: 0.918
21,Cc1ccccc1N1C(=O)c2cc(S(N)(=O)=O)c(Cl)cc2NC1C (configuration not stated) [Metolazone],inactive: 0.547
22,CCC(=O)OCC(=O)[C@@]1(OC(=O)CC)[C@H](C)C[C@H]2[C@H]3[C@H]([C@@H](O)C[C@@]21C)[C@@]1(C)C=CC(=O)C=C1C[C@H]3Cl [Alclometasone dipropionate],active: 3.32
23,c1ccc2c(c1)CCCc1cc(NCCN3CCOCC3)nnc1-2,inactive: 1.67

# Pulled one by one from the entries so far:
row,SMILES,cell-surface Lgr5 expression
2,C[C@]12CC[C@@H]3c4ccc(O)cc4CC[C@H]3[C@@H]1CCC2=O [Estrone],inactive: 2
4,CC(=O)N(CC(C)C(=O)O)c1c(I)cc(I)c(N)c1I (configuration not stated) [Iocetamic acid],inactive: 2.03
7,CC1CS(=O)(=O)CCN1/N=C/c1ccc([N+](=O)[O-])o1 (configuration not stated) [Nifurtimox],inactive: 1.07

# Additional entries follow:

row,SMILES,cell-surface Lgr5 expression
1,Nc1cc(-c2ccncc2)c[nH]c1=O [Amrinone],inactive: 0.978
2,CN(C)CCOC(=O)COc1ccc(Cl)cc1 [Meclofenoxate hydrochloride],inactive: 1.92
3,N=C(N)N/N=C/c1c(Cl)cccc1Cl [Guanabenz acetate],inactive: 1.24
4,"OC(CCN1CCCCC1)(c1ccccc1)C1CCCCC1 (configuration not stated) [Trihexyphenidyl-D,L Hydrochloride]",active: 2.57
5,N[C@@H](C(=O)N[C@@H]1C(=O)N2C(C(=O)O)=C(Cl)CS[C@H]12)c1ccccc1 [Cefaclor],active: 3.42
6,CC(Oc1ccccc1)C(=O)N[C@@H]1C(=O)N2[C@@H]1SC(C)(C)[C@@H]2C(=O)O (some centres not stated) [Phenethicillin potassium salt],inactive: 0.257
7,CN(C)[C@@H]1C(O)=C(C(N)=O)C(=O)[C@@]2(O)C(O)=C3C(=O)c4c(O)ccc(Cl)c4[C@@H](O)[C@H]3C[C@@H]12 [Demeclocycline hydrochloride],inactive: 1.72
8,Cn1c([N+](=O)[O-])cnc1COC(N)=O [Ronidazole],inactive: 1.47
9,O=c1c(O)c(-c2ccc(O)c(O)c2)oc2cc(O)cc(O)c12 [Quercetine dihydrate],inactive: 1.94
10,COc1ccc(C(=O)c2ccccc2O)c(O)c1 [Dioxybenzone],inactive: 1.94
11,CC(C)(C)NC[C@H](O)COc1ccccc1C1CCCC1 [Penbutolol sulfate],inactive: 1.54
12,CCCCC[C@H](O)/C=C/[C@H]1[C@H](O)CC(=O)[C@@H]1CCCCCCC(=O)O [Alprostadil],inactive: 1.51
13,CCOc1ccc(NC(C)=O)cc1 [Phenacetin],inactive: 1.9
14,CN1CCC[C@@H]1CCO[C@](C)(c1ccccc1)c1ccc(Cl)cc1 [Clemastine fumarate],inactive: 1.2
15,CC(C(=O)O)c1ccc(C(=O)c2cccs2)cc1 (configuration not stated) [Suprofen],inactive: 2.11
16,C#C[C@]1(O)CC[C@H]2[C@@H]3CCC4=C(CCC(=O)C4)[C@H]3CC[C@@]21C [Norethynodrel],inactive: 1.22
17,NS(=O)(=O)c1cc2c(cc1Cl)NC(CC1CCCC1)NS2(=O)=O (configuration not stated) [Cyclopenthiazide],inactive: 1.23
18,CC(C)(C)NCC(O)c1cc(O)cc(O)c1 (configuration not stated) [Terbutaline hemisulfate],inactive: 2.11
19,CCOC(=O)[N-]c1c[n+](N2CCOCC2)no1 [Molsidomine],active: 3.19
20,CC[N+](CC)(CC)CCOc1cccc(OCC[N+](CC)(CC)CC)c1OCC[N+](CC)(CC)CC [Gallamine triethiodide],inactive: 0.889
21,NCc1ccc(S(N)(=O)=O)cc1 [Mafenide hydrochloride],inactive: 1.13
22,CN[C@@H]1[C@H](O[C@H]2[C@H](O[C@H]3[C@H](O)[C@@H](O)[C@H](NC(=N)N)[C@@H](O)[C@@H]3NC(=N)N)O[C@@H](C)[C@]2(O)CO)O[C@@H](CO)[C@H](O)[C@H]1O [Dihydrostreptomycin sulfate],inactive: 0.569
23,CC/C(=C(\c1ccccc1)c1ccc(OCCN(C)C)cc1)c1ccccc1 [Tamoxifen citrate],inactive: 1.13

row,SMILES,cell-surface Lgr5 expression
1,CCc1oc2ccccc2c1C(=O)c1cc(Br)c(O)c(Br)c1 [Benzbromarone],inactive: 0.487
2,CN(C)CCOC(c1ccc(Cl)cc1)c1ccccn1 (configuration not stated) [Carbinoxamine maleate salt],inactive: 2.3
3,NC(=O)NC1NC(=O)NC1=O (configuration not stated) [Allantoin],inactive: 1.51
4,"CC(C)NCC(O)c1ccc(O)c(O)c1 (single isomer, unassigned; (-)) [(-)-Isoproterenol hydrochloride]",inactive: 2.26
5,O=C1C(O)=C([C@H]2CC[C@H](c3ccc(Cl)cc3)CC2)C(=O)c2ccccc21 [Atovaquone],inactive: 2.19
6,Cc1ccccc1C(OCCN(C)C)c1ccccc1 (configuration not stated) [Orphenadrine hydrochloride],inactive: 0.562
7,COC(=O)C1=C(C)NC(C)=C(C(=O)OCCN(C)Cc2ccccc2)C1c1cccc([N+](=O)[O-])c1 (configuration not stated) [Nicardipine hydrochloride],inactive: 1.56
8,COC(=O)[C@H]1[C@H]2C[C@@H]3c4[nH]c5cc(OC)ccc5c4CCN3C[C@H]2C[C@@H](OC(=O)/C=C/c2cc(OC)c(OC)c(OC)c2)[C@@H]1OC [Rescinnamin],inactive: 2.06
9,CCC1NC(=O)c2cc(S(N)(=O)=O)c(Cl)cc2N1 (configuration not stated) [Quinethazone],inactive: 1.03
10,COc1ccccc1N1CCN(CCCCNC(=O)c2ccc3ccccc3c2)CC1,active: 2.67
11,"CC(O)(P(=O)(O)O)P(=O)(O)O [Etidronic acid, disodium salt]",inactive: 2.3
12,Cc1cnc(C(=O)NCCc2ccc(S(=O)(=O)NC(=O)NC3CCCCC3)cc2)cn1 [Glipizide],inactive: 1.07
13,CN1CCOC(c2ccccc2)c2ccccc2C1 (configuration not stated) [Nefopam hydrochloride],inactive: 0.792
14,CN1CCC(=C2c3ccccc3CCc3sccc32)CC1 [Pizotifen malate],inactive: 1.91
15,"CCN(CC)CCOc1ccc(C(=C(Cl)c2ccccc2)c2ccccc2)cc1 [Clomiphene citrate (Z,E)]",inactive: 0.985
16,CCCCNc1ccc(C(=O)OCCN(C)C)cc1,inactive: 2.19
17,CN(C)[C@@H]1C(O)=C(C(=O)NCNCCCC[C@H](N)C(=O)O)C(=O)[C@@]2(O)C(O)=C3C(=O)c4c(O)cccc4[C@@](C)(O)[C@H]3C[C@@H]12 [Lymecycline],inactive: 1.42
18,COc1ccccc1N1CCN(CCCNc2cc(=O)n(C)c(=O)n2C)CC1 [Urapidil hydrochloride],inactive: 0.807
19,CCC(=O)OCC(=O)[C@@]1(OC(=O)CC)[C@@H](C)C[C@H]2[C@@H]3CCC4=CC(=O)C=C[C@]4(C)[C@@]3(Cl)[C@@H](O)C[C@@]21C [Beclomethasone dipropionate],active: 5
20,O=C(/C=C/C=C/c1ccc2c(c1)OCO2)N1CCCCC1 [Piperine],inactive: 1.29
21,CCN(CC)Cc1cc(Nc2ccnc3cc(Cl)ccc23)ccc1O [Amodiaquin dihydrochloride dihydrate],inactive: 0.45
